Results are given in words; binding and its absence hold for the method and conditions named. Binding seen in cells or lysates may run through a third protein. A result given as binding can be weak or reduced; the word gives no strength.
Biological target: His-tagged TagA (Vibrio cholerae)
Assay: pull-down

B1: Hcp (protein, UniProt P72350 1-172)
chain: MPTPCYISIEGQTQGLITAGACTADSIGDSFVEGHEDEMLVQQFDHVVTVPTDPQSGQPSGQRVHKPFKFTVALNKAVPLLYNALSSGEKLKTVELKWYRTSIEGKQENFFTTKLENASIVDIHCEMPHCQDPAKSDFTQNVTVSLSYRKITWDHVNAGTSGSDDWRKPIEA
- binding: binds

From publication PMC7545191
